Results on 30 molecules are retold here after publication PMC10951710.

The chains behind the UniProt entries cited, without tags or fusion partners. Where a name states a change or a piece, a line headed by the entry shows the natural chain unless it says otherwise.
UniProt Q9FT52: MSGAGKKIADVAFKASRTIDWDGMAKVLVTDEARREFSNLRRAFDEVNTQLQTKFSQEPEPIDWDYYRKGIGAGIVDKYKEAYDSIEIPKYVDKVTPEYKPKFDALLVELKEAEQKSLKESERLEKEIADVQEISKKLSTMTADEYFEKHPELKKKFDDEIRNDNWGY
UniProt F4HQ88: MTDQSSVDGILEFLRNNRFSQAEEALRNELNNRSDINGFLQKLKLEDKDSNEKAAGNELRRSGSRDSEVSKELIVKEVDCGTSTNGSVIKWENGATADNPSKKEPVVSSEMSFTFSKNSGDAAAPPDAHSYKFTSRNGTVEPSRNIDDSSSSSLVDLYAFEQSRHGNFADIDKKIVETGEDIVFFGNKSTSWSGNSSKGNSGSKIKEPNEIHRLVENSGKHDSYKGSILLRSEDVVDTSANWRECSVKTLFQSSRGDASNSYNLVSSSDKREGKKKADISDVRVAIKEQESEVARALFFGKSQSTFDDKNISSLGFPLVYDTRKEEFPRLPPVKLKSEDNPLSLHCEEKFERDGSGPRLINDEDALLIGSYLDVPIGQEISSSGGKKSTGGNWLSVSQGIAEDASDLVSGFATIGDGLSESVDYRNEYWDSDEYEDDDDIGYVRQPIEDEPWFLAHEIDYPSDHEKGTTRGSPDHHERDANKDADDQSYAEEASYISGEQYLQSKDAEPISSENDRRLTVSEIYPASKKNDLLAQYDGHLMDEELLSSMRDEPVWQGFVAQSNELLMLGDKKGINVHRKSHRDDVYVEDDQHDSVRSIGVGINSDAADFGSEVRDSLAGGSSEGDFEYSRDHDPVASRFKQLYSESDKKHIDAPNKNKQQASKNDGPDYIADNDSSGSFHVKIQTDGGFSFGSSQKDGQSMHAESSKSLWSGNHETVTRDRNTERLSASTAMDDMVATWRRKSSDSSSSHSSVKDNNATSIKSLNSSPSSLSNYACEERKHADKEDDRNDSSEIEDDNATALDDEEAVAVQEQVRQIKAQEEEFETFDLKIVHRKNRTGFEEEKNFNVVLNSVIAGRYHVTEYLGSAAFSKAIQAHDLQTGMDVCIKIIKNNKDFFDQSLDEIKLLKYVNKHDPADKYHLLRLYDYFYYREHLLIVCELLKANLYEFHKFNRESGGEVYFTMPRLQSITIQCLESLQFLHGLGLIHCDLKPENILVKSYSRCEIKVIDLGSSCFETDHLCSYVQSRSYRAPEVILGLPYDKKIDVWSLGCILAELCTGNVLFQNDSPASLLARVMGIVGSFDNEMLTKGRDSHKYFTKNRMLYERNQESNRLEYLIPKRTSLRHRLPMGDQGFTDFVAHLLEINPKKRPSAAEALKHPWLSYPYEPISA
UniProt Q9ZPZ4: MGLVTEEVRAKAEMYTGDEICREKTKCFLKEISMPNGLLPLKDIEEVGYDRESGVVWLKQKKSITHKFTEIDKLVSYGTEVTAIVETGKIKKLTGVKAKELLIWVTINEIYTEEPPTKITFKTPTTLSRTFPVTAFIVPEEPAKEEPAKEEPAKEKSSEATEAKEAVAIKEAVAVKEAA
UniProt Q8W234: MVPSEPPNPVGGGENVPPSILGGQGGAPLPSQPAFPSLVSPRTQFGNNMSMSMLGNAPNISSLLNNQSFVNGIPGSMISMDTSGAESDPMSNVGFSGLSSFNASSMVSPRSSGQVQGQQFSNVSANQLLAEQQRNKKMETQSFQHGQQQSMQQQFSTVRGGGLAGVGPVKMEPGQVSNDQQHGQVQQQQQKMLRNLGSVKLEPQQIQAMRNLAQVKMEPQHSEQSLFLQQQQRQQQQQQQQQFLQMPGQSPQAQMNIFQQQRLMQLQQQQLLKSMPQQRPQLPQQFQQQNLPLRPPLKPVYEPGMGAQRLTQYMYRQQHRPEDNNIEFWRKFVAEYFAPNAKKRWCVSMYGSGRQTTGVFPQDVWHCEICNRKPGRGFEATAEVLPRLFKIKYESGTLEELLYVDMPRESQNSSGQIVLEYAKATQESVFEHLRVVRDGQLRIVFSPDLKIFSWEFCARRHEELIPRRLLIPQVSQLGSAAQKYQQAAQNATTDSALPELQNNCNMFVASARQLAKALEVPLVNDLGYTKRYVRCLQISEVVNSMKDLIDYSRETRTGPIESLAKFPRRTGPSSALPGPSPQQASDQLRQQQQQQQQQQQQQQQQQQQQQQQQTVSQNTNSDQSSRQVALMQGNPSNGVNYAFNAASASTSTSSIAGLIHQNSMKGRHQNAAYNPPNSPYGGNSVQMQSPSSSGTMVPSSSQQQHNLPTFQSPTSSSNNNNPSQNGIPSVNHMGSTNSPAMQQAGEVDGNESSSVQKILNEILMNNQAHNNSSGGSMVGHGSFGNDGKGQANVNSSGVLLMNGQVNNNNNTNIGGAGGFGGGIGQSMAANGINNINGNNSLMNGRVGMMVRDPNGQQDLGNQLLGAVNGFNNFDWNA
UniProt P45432: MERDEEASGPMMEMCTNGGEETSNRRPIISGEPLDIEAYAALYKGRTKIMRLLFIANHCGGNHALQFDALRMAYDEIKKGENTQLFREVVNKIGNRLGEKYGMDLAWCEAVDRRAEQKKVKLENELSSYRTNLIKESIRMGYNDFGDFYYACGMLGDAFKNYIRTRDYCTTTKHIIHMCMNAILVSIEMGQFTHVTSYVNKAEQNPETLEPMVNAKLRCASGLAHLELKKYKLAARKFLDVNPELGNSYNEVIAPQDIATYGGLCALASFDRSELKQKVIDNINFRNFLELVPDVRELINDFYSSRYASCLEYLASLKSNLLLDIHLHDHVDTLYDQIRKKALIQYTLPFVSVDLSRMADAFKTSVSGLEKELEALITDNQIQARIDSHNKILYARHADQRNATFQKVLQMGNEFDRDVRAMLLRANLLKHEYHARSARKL
UniProt F4K6U2: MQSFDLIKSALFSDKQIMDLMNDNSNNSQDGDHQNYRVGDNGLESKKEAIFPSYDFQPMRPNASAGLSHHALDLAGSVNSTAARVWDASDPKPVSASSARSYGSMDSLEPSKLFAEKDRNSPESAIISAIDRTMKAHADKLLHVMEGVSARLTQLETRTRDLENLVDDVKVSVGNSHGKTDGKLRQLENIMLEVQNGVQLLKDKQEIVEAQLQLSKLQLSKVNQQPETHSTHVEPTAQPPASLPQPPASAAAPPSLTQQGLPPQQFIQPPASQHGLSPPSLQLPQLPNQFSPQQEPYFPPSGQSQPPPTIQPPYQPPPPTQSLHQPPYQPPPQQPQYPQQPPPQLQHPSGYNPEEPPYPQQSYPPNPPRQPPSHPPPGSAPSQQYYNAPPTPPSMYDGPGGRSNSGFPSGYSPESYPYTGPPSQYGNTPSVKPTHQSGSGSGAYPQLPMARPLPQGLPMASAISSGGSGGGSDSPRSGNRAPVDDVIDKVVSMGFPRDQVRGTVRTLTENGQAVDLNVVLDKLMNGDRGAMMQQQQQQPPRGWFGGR
UniProt P52032: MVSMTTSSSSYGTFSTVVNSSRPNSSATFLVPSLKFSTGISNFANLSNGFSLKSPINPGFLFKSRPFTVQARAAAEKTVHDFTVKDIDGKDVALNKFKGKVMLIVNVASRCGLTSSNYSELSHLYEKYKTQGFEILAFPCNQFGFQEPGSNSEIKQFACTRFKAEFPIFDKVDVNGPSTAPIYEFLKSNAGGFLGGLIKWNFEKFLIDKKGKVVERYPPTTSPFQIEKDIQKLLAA
UniProt Q9FIL6: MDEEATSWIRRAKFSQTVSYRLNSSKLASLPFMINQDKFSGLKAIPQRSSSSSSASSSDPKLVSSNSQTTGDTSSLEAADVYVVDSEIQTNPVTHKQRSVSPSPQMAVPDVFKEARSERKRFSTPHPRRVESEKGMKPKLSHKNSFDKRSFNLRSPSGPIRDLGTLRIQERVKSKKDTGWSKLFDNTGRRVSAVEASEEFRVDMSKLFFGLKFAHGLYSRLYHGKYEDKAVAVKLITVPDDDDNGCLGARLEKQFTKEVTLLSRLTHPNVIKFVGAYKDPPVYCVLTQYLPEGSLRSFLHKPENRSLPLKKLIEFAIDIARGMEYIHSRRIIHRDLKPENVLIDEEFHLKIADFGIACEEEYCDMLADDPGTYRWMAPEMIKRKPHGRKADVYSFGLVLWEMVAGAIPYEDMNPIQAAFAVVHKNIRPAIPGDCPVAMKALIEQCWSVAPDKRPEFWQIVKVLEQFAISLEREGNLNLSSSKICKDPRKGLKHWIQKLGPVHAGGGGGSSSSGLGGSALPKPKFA
UniProt Q93YR3: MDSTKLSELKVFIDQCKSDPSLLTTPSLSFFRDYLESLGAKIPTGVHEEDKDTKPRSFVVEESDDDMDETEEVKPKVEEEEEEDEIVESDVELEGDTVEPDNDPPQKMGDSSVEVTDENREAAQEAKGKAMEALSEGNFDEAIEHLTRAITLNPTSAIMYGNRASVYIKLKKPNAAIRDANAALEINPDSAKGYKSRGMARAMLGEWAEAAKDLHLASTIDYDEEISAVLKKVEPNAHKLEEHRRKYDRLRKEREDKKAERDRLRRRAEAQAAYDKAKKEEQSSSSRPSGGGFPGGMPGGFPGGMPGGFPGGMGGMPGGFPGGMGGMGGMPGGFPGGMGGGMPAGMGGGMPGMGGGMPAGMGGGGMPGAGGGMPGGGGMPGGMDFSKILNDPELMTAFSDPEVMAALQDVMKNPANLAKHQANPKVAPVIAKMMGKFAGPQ
UniProt F4J2I0: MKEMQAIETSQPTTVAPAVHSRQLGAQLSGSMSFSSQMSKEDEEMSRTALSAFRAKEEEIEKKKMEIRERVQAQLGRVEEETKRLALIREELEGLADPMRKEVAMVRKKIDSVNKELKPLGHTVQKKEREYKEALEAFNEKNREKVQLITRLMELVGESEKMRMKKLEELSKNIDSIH
UniProt Q9SD86: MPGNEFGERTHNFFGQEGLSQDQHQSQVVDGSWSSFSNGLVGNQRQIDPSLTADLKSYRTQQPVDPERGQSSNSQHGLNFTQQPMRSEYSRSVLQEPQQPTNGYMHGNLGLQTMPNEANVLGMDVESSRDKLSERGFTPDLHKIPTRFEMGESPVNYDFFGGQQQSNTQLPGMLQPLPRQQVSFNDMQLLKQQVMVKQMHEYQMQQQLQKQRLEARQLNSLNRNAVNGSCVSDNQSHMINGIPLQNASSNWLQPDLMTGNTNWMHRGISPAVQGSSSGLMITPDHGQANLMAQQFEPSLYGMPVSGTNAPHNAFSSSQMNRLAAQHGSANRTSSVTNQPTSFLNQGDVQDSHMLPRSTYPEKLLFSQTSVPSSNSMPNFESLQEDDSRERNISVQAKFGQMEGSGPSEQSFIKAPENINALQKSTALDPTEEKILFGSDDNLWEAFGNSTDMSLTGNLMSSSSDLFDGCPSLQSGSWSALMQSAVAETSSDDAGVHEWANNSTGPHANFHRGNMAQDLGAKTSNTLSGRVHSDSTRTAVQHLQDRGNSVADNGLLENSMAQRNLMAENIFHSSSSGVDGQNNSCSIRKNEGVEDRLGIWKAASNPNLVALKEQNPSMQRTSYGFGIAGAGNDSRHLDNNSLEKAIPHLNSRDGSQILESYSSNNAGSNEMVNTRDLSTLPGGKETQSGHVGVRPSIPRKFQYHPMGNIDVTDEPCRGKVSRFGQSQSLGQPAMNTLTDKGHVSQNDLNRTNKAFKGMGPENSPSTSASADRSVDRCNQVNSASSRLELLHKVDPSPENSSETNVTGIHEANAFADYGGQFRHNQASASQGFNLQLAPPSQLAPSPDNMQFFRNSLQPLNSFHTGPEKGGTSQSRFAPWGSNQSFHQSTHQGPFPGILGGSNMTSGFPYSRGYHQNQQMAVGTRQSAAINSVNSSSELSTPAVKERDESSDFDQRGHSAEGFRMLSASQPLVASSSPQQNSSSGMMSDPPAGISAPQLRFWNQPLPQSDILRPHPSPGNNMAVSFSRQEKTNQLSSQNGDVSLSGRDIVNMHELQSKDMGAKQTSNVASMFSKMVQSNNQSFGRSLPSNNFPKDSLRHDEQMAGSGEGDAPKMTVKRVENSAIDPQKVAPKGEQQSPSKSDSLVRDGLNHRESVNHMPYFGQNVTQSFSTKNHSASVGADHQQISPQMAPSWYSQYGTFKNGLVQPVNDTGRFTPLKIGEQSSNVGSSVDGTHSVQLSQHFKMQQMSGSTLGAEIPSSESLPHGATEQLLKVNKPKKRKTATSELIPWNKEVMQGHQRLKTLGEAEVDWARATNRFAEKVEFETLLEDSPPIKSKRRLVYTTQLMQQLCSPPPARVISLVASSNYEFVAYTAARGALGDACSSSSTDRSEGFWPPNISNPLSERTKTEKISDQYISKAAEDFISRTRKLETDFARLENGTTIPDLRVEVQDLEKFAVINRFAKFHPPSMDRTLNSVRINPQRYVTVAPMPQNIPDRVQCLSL
UniProt O82631: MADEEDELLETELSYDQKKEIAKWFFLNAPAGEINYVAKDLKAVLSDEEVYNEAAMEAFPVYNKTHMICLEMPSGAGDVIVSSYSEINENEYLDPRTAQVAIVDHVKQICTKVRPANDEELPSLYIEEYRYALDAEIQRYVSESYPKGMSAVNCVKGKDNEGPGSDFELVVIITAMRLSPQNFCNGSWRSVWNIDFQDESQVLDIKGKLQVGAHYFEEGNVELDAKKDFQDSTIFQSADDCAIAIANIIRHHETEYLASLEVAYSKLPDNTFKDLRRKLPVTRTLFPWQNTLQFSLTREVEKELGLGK

The assay has as its target T1, MKK2-TurboID-Hisx8 fusion protein (mitogen-activated protein kinase kinase 2 fused to TurboID) (Arabidopsis thaliana) (UniProt Q9S7U9).
T1 sequence: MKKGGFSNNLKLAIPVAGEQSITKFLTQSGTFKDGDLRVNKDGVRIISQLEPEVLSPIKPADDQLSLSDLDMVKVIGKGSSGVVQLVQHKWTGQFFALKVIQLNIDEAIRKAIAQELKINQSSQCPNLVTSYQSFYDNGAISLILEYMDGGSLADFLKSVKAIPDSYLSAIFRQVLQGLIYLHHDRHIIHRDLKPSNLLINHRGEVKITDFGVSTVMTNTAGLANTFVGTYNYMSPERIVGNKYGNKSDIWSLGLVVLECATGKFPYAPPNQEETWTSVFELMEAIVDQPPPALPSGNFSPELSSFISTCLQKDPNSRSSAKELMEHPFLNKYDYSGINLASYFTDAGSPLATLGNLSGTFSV
Description: proximity labelling; in planta TurboID labelling in MKK1-ID or MKK2-ID transgenic Arabidopsis against TurboID-only (ID) plants; 150 uM biotin and 5 uM estradiol in the medium, 5 min wind of 4 m/sec; denaturing extraction, streptavidin enrichment of biotinylproteins and biotinylpeptides, LC-MS/MS, iBAQ quantitation; hits at log2-ratio >= 1.58 and BH-FDR <= 0.05.

These are yes or no findings as the source states them, for the method shown. In cells and extracts the contact can be indirect. These calls come from enrichment with a bait or labelling near it, and not all partners need be listed. Where a sequence is shown, tags or fusion partners need not be part of it.

Turning to “ATP synthase D chain, mitochondrial (ATPQ) (from UniProt Q9FT52)”, the binding entry is recorded as “binds”. Next, SGS domain-containing protein: “binds”.

Take “Plant-specific dual-specificity tyrosine phosphorylation-regulated kinase 2A (DYRKP-2A) (from UniProt F4HQ88) (enzyme)”: the binding entry was “binds”. Next, “ABA responsive trichome formation regulator (SVBL) (from UniProt Q9ZPZ4)”: “binds”.

On to COMPLEX 1 LYR-like protein (EMB2786), for which the binding result is recorded as “binds”. The entry for Ankyrin repeat protein is “binds”; for “SEUSS transcriptional co-regulator (SEU) (from UniProt Q8W234 1-877)” it is “binds”.

As to “Shaggy-like kinase 31 (SK31) (from UniProt P45432)”, the binding result is “binds”. Next, “Basic salivary proline-rich-like protein (DUF1421) (FLOE2) (from UniProt F4K6U2)”: “binds”; CASC3/Barentsz eIF4AIII binding (BTZ2): “binds”; “Glutathione peroxidase 1 (ATGPX1) (from UniProt P52032) (enzyme)”: “binds”. The entry for “A group C Raf-like protein kinase (RAF36); Wind-Related Kinase 1 (WIRK1) (from UniProt Q9FIL6) (enzyme)” is “binds”; for “Ribosomal protein L11 family protein (UL11Z) (from UniProt P50883 1-166)” it is “binds”. Next, RabGAP/TBC domain-containing protein: “binds”. For “Scaffold protein in the CCR4-NOT complex (NOT1)”, the binding entry was “binds”. In the case of “HSP70-interacting protein 1 (ATHIP1) (from UniProt Q93YR3)”, the binding result was “binds”. With “A microtubules-associated protein required for bacterial immunity (ACIP1) (from UniProt F4J2I0)”, the binding entry is “binds”. Regarding “A specific subunit of SYD-associated SWI/SNF (SAS) complexes (from UniProt Q9SD86)”, the binding entry is listed as “binds”. The entry for “Capping protein A (ATCPA) (from UniProt O82631)” is “binds”. Next, “KH domain-containing protein (ATKH18) (from UniProt F4JLJ3)”: “binds”; “Ribosomal RNA small subunit methyltransferase G”: “binds”; “Nuclear factor Y, subunit C1 (ATHAP5A) (from UniProt Q9SMP0)”: “binds”.

B1: PCF11P-similar protein 4 (PCFS4) (protein, UniProt Q0WPF2 1-808)
chain: MDSEKILNPRLVSINSTSRKGMSVELPQKPPPPPSLLDRFKALLNQREDEFGGGEEVLPPSMDEIVQLYEVVLGELTFNSKPIITDLTIIAGEQREHGEGIANAICTRILEAPVEQKLPSLYLLDSIVKNIGRDYGRYFSSRLPEVFCLAYRQAHPSLHPSMRHLFGTWSSVFPPPVLRKIDMQLQLSSAANQSSVGASEPSQPTRGIHVNPKYLRRLEPSAAENNLRGINSSARVYGQNSLGGYNDFEDQLESPSSLSSTPDGFTRRSNDGANPSNQAFNYGMGRATSRDDEHMEWRRKENLGQGNDHERPRALIDAYGVDTSKHVTINKPIRDMNGMHSKMVTPWQNTEEEEFDWEDMSPTLDRSRAGEFLRSSVPALGSVRARPRVGNTSDFHLDSDIKNGVSHQLRENWSLSQNYPHTSNRVDTRAGKDLKVLASSVGLVSSNSEFGAPPFDSIQDVNSRFGRALPDGTWPHLSARGPNSLPVPSAHLHHLANPGNAMSNRLQGKPLYRPENQVSQSHLNDMTQQNQMLVNYLPSSSAMAPRPMQSLLTHVSHGYPPHGSTIRPSLSIQGGEAMHPLSSGVLSQIGASNQPPGGAFSGLIGSLMAQGLISLNNQPAGQGPLGLEFDADMLKIRNESAISALYGDLPRQCTTCGLRFKCQEEHSKHMDWHVTKNRMSKNHKQNPSRKWFVSASMWLSGAEALGAEAVPGFLPTEPTTEKKDDEDMAVPADEDQTSCALCGEPFEDFYSDETEEWMYKGAVYMNAPEESTTDMDKSQLGPIVHAKCRPESNGGDMEEGSQRKKMRS
Regarding B1, the binding result was “binds”.

B2: MAPK/ERK kinase kinase 1 (MEKK1) (enzyme, UniProt Q39008 1-608)
chain: MDRILARMKKSTGRRGGDKNITPVRRLERRDAARNINYDAASCSSSSAEDLSVSTSSLMTRSLEFPEPTSFRIGGGVGEMDRIYRSLGVSGPDDLAISFDAWEACKKRSSSDVVNRFKSFDLDKVRDQDLSEEGPSGVVVGSDSMNHKVQGQDLSEAGPSGGIVTELSEIGNLITPVDRLVADGVVENRRVMERTPTIVKSKGYLVPNNVVAVGVGVGGGIKGLRPPVLKPPPAMKRPPIDHRGSSWDFLTHFAPSETVKRPSSSSSSSEDGCDEEEGKEEEAEAEEMGARFIQLGDTADETCSFTTNEGDSSSTVSNTSPIYPDGGAIITSWQKGQLLGRGSFGSVYEGISGDGDFFAVKEVSLLDQGSQAQECIQQLEGEIKLLSQLQHQNIVRYRGTAKDGSNLYIFLELVTQGSLLKLYQRYQLRDSVVSLYTRQILDGLKYLHDKGFIHRDIKCANILVDANGAVKLADFGLAKVSKFNDIKSCKGTPFWMAPEVINRKDSDGYGSPADIWSLGCTVLEMCTGQIPYSDLEPVQALFRIGRGTLPEVPDTLSLDARLFILKCLKVNPEERPTAAELLNHPFVRRPLPSVGSGGSGSASPLLRR
Consider B2, for which the binding result is on record as “binds”.

B3: AMMECR1 family (protein, UniProt Q9ZVJ2 1-214)
chain: MVSANREMAVYCFDTLVSHYNNEETPPPAFEEANHPLFVTWKKIVNGGEPRLRGCIGTLEARRLISGFKDYALTSALRDRRFPPIQAKELPSLQCTVSVLTDYEDAEDYLDWEVGKHGIIIEFTEPETNTKRSATYLPEVPAHEGWTKIEAIDSLVRKAGYNGVITEAVRRRINLTRYQSTLFSMHYSEYLSYVKATRGVVGPVINGINKHAFA
Consider B3, for which the binding result is recorded as “binds”.

B4: SC35-like splicing factor 30A (AT-SCL30A) (protein, UniProt Q9LHP2 1-262)
chain: MRGRSYTPSPPRGYGRRGRSPSPRGRFGGSRDSDLPTSLLVRNLRHDCRQEDLRRPFEQFGPVKDIYLPRDYYTGDPRGFGFIQFMDPADAAEAKHQMDGYLLLGRELTVVFAEENRKKPTEMRTRDRGGRSNRFQDRRRSPPRYSRSPPPRRGRRSRSRSRGYNSPPAKRHQSRSVSPQDRRYEKERSYSRSPPHNGSRVRSGSPGRVKSHSRSPRRSVSPRKNRSYTPEQARSQSPVPRQSRSPTPVPRGAQNGDRSPSQ
For B4, the binding entry is “binds”.

B5: AtSGT1a and AtSGT1b are functionally redundant in the resistance to pathogenes (ATSGT1B) (protein, UniProt Q9SUT5 1-358)
chain: MAKELAEKAKEAFLDDDFDVAVDLYSKAIDLDPNCAAFFADRAQANIKIDNFTEAVVDANKAIELEPTLAKAYLRKGTACMKLEEYSTAKAALEKGASVAPNEPKFKKMIDECDLRIAEEEKDLVQPMPPSLPSSSTTPLATEADAPPVPIPAAPAKPMFRHEFYQKPEEAVVTIFAKKVPKENVTVEFGEQILSVVIDVAGEEAYHLQPRLFGKIIPEKCRFEVLSTKVEIRLAKAEIITWASLEYGKGQSVLPKPNVSSALSQRPVYPSSKPAKDWDKLEAEVKKQEKDEKLDGDAAMNKFFSDIYSSADEDMRRAMNKSFAESNGTVLSTNWKEVGTKKVESTPPDGMELKKWEY
Take B5: the binding entry is listed as “binds”.

B6: UDP-Glycosyltransferase superfamily protein (enzyme, UniProt Q9LSY5 1-495)
chain: MKFELVFIPYPGIGHLRSTVEMAKLLVDRETRLSISVIILPFISEGEVGASDYIAALSASSNNRLRYEVISAVDQPTIEMTTIEIHMKNQEPKVRSTVAKLLEDYSSKPDSPKIAGFVLDMFCTSMVDVANEFGFPSYMFYTSSAGILSVTYHVQMLCDENKYDVSENDYADSEAVLNFPSLSRPYPVKCLPHALAANMWLPVFVNQARKFREMKGILVNTVAELEPYVLKFLSSSDTPPVYPVGPLLHLENQRDDSKDEKRLEIIRWLDQQPPSSVVFLCFGSMGGFGEEQVREIAIALERSGHRFLWSLRRASPNIFKELPGEFTNLEEVLPEGFFDRTKDIGKVIGWAPQVAVLANPAIGGFVTHCGWNSTLESLWFGVPTAAWPLYAEQKFNAFLMVEELGLAVEIRKYWRGEHLAGLPTATVTAEEIEKAIMCLMEQDSDVRKRVKDMSEKCHVALMDGGSSRTALQKFIEEVAKNIVSLDKEFEHVALK
B6: the binding entry is “binds”.

B7: Mitogen activated protein kinase kinase 1 (MKK1) (enzyme, UniProt Q94A06 1-354)
chain: MNRGSLCPNPICLPPLEQSISKFLTQSGTFKDGDLRVNKDGIQTVSLSEPGAPPPIEPLDNQLSLADLEVIKVIGKGSSGNVQLVKHKLTQQFFALKVIQLNTEESTCRAISQELRINLSSQCPYLVSCYQSFYHNGLVSIILEFMDGGSLADLLKKVGKVPENMLSAICKRVLRGLCYIHHERRIIHRDLKPSNLLINHRGEVKITDFGVSKILTSTSSLANSFVGTYPYMSPERISGSLYSNKSDIWSLGLVLLECATGKFPYTPPEHKKGWSSVYELVDAIVENPPPCAPSNLFSPEFCSFISQCVQKDPRDRKSAKELLEHKFVKMFEDSDTNLSAYFTDAGSLIPPLAN
For the molecule B7, the binding result is on record as “binds”.

B8: BOBBER1, HSP20-like chaperones superfamily protein (BOB1) (protein, UniProt Q9LV09 1-304)
chain: MAIISEVEEESSSSRPMIFPFRATLSSANPLGFLEKVFDFLGEQSDFLKKPSAEDEIVVAVRAAKEKLKKAEKKKAEKESVKPVEKKAEKEIVKLVEKKVEKESVKPTIAASSAEPIEVEKPKEEEEKKESGPIVPNKGNGTDLENYSWIQNLQEVTVNIPVPTGTKARTVVCEIKKNRLKVGLKGQDPIVDGELYRSVKPDDCYWNIEDQKVISILLTKSDQMEWWKCCVKGEPEIDTQKVEPETSKLGDLDPETRSTVEKMMFDQRQKQMGLPTSEELQKQEILKKFMSEHPEMDFSNAKFN
Regarding B8, the binding entry is “binds”.
